Measurements from patent US20080027145A1, “Therapeutic Molecules and Methods for Generating and/or Selecting Same” (priority 2004, published 2008).
Results are given in words; binding and its absence hold for the method and conditions named. Binding seen in cells or lysates may run through a third protein. Some results given as binding are weak or reduced against the parent protein; the word gives no strength.

By UniProt entry, the sequences of proteins in these tests, tags left out. Where a name states a change or a piece, a line headed by the entry shows the natural chain unless it says otherwise. Chains listed by the source or under a name are the forms on record and can include a tag or linker.
FLAG-tagged human Bcl-xL (full-length) (Q07817, form named): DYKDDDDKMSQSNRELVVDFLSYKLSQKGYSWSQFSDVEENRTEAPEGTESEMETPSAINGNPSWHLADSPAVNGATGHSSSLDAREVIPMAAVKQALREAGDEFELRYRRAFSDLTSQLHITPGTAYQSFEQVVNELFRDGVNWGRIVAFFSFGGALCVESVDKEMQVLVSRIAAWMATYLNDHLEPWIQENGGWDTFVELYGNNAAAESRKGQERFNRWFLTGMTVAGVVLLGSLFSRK
FLAG-tagged human Bcl-2 (full-length) (P10415, form named): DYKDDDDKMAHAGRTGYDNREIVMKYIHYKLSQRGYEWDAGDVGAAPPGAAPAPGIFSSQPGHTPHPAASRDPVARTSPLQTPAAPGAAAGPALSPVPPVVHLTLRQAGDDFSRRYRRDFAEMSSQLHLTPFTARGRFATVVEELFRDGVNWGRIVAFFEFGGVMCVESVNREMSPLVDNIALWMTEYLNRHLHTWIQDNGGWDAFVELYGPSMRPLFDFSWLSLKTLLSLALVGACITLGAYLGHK
FLAG-tagged mouse Mcl-1 (full-length) (P97287, form named): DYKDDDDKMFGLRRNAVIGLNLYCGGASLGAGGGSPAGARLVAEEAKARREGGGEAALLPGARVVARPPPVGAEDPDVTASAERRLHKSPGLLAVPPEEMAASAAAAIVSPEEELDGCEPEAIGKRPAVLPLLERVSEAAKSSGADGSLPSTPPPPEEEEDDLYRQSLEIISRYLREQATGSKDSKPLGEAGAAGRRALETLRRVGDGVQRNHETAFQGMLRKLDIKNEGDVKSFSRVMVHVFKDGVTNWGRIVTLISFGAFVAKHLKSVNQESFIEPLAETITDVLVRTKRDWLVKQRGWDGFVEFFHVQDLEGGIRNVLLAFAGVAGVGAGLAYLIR
HA-tagged full-length human Bik (Q13323, form named): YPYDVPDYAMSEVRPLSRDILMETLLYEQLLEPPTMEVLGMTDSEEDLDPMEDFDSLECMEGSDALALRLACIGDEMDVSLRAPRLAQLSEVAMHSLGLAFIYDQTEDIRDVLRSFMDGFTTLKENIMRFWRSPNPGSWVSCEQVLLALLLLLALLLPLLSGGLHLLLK

Experiments:
[1] = molecular target: FLAG-tagged human Bcl-xL (full-length) (human) (UniProt Q07817); test: co-immunoprecipitation from 293T cells
[2] = molecular target: FLAG-tagged human Bcl-2 (full-length) (human) (UniProt P10415); test: co-immunoprecipitation from 293T cells
[3] = molecular target: FLAG-tagged mouse Mcl-1 (full-length) (mouse) (UniProt P97287); test: co-immunoprecipitation from 293T cells
[4] = molecular target: FLAG-tagged human Bcl-xL (full-length) (human) (UniProt Q07817); test: co-immunoprecipitation from 35S-labelled 293T cell lysates
[5] = molecular target: FLAG-tagged human Bcl-2 (full-length) (human) (UniProt P10415); test: as above
[6] = molecular target: FLAG-tagged mouse Mcl-1 (full-length) (mouse) (UniProt P97287); test: as above
[7] = molecular target: FLAG-tagged human Bcl-xL (full-length) (human) (UniProt Q07817); test: co-immunoprecipitation from 35S-labelled 293T cell lysates (FIG. 3C)
[8] = molecular target: FLAG-tagged human Bcl-xL (full-length) (human) (UniProt Q07817); test: co-immunoprecipitation from 35S-labelled 293T lysates (IP anti-HA, anti-FLAG, control), fluorography
[9] = molecular target: FLAG-tagged human Bcl-2 (full-length) (human) (UniProt P10415); test: as above
[10] = molecular target: FLAG-tagged mouse Mcl-1 (full-length) (mouse) (UniProt P97287); test: as above

binding [1]: binds
binding [2]: binds
binding [3]: binds
binding [4]: binds
binding [5]: binds
binding [6]: binds
binding [7]: binds
binding [8]: binds
binding [9]: binds
binding [10]: binds
Substance: HA-tagged full-length human Bik (from UniProt Q13323 1-160)
